Data: publication PMC6412653
Results are given in words; binding and its absence hold for the method and conditions named. Binding seen in cells or lysates may run through a third protein. Some entries that bind do so weakly or less than the wild type.

The chains behind the UniProt entries cited, without tags or fusion partners. Where a name states a change or a piece, a line headed by the entry shows the natural chain unless it says otherwise.
UniProt O76324: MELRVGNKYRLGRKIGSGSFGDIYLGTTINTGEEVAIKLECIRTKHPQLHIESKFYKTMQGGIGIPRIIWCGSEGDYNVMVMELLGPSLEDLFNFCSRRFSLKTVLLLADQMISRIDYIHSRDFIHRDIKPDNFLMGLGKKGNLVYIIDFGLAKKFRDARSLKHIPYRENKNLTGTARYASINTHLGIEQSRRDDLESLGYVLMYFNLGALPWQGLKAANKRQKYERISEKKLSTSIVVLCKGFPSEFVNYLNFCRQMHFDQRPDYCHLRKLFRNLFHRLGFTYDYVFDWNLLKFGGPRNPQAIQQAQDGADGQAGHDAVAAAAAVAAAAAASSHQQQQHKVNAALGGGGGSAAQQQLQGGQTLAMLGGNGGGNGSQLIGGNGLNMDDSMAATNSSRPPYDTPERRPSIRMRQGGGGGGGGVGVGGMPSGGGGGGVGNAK

How the values were obtained:
[1] = target: DBT K217N-MYC (Drosophila) (UniProt O76324); assay: co-IP; head extracts of 100 flies per genotype collected at ZT7, DBT-MYC expressed with timGAL4; DBT-MYC precipitated with mouse anti-MYC IgG and gamma-bind beads; immunoblot with anti-DBTC and anti-BDBT
[2] = target: DBT R193N-MYC (Drosophila) (UniProt O76324); assay: as above

B1: BDBT (protein, UniProt Q9VDE4 1-286)
chain: MDWYVGTEWEDKNRGLAKKVIGLQFTEMDKPTIISTVEFSVNKKATNLGGRPSKYLVSDESATYPQKHSLEMGTSLTAVDCYLELLLQQFVPGETAACSITTKTGERIEFELKLEKIVKNTQVEKLSAAEIYEVALRLKESGVATFKTFPKFAFDYFVRAAKLLITYKPFDKLTKKTNGINGQAVEELFIQIQTNLAACLLQEKRYEHVIYHTQFVETEESPSEKSIYRRALAYYHLKEFAKAQATIERMPNYEEKREFSKLRDNIAVSWKDSKAHYKEVVQRMFS
binding [1]: binds | binding [2]: binds
